Assay results: the supplement of paper PMC8728848
This is one part of the list.

How the values were obtained:
Test in all cases: glycan array binding signal (z-score within array); higher = stronger binding
Conditions in all cases: glycan notation: IUPAC condensed, linker removed
[1] = target: GlcNAc(b1-3)Gal(b1-4)GlcNAc(b1-3)Gal(b1-4)GlcNAc(b1-2)Man(a1-3)[GlcNAc(b1-3)Gal(b1-4)GlcNAc(b1-3)Gal(b1-4)GlcNAc(b1-2)Man(a1-6)]Man(b1-4)GlcNAc(b1-4)[Fuc(a1-6)]GlcNAc
Procedure, shortened: (§1)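 The Consortium for Functional Glycomics database supplied 3228 glycan arrays, of which those lacking an available protein sequence were dropped. The binding signal, a within-array Z-score, was averaged across arrays of the same protein sequence and across linkers. Negative scores can be read as non-binding.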

[2] = target: GlcNAc(b1-3)Gal(b1-4)GlcNAc(b1-3)Gal(b1-4)GlcNAc(b1-2)[GlcNAc(b1-3)Gal(b1-4)GlcNAc(b1-3)Gal(b1-4)GlcNAc(b1-6)]Man(a1-6)[GlcNAc(b1-3)Gal(b1-4)GlcNAc(b1-3)Gal(b1-4)GlcNAc(b1-2)Man(a1-3)]Man(b1-4)GlcNAc(b1-4)[Fuc(a1-6)]GlcNAc
Procedure, shortened: as §1

[3] = target: GlcNAc(b1-3)Gal(b1-4)GlcNAc(b1-3)Gal(b1-4)GlcNAc(b1-3)Gal(b1-4)GlcNAc(b1-2)Man(a1-3)[GlcNAc(b1-3)Gal(b1-4)GlcNAc(b1-3)Gal(b1-4)GlcNAc(b1-3)Gal(b1-4)GlcNAc(b1-2)Man(a1-6)]Man(b1-4)GlcNAc(b1-4)GlcNAc
Procedure, shortened: as §1

[4] = target: GlcNAc(b1-3)Gal(b1-4)GlcNAc(b1-3)Gal(b1-4)GlcNAc(b1-3)Gal(b1-4)GlcNAc(b1-2)Man(a1-3)[GlcNAc(b1-3)Gal(b1-4)GlcNAc(b1-3)Gal(b1-4)GlcNAc(b1-3)Gal(b1-4)GlcNAc(b1-2)Man(a1-6)]Man(b1-4)GlcNAc(b1-4)[Fuc(a1-6)]GlcNAc
Procedure, shortened: as §1

[5] = target: GlcNAc(b1-3)Gal(b1-4)GlcNAc(b1-3)Gal(b1-4)GlcNAc(b1-3)Gal(b1-4)GlcNAc(b1-2)[GlcNAc(b1-3)Gal(b1-4)GlcNAc(b1-3)Gal(b1-4)GlcNAc(b1-3)Gal(b1-4)GlcNAc(b1-6)]Man(a1-6)[GlcNAc(b1-3)Gal(b1-4)GlcNAc(b1-3)Gal(b1-4)GlcNAc(b1-3)Gal(b1-4)GlcNAc(b1-2)Man(a1-3)]Man(b1-4)GlcNAc(b1-4)[Fuc(a1-6)]GlcNAc
Procedure, shortened: as §1

[6] = target: GlcNAc(b1-3)Gal(b1-4)GlcNAc(b1-3)Gal(b1-4)GlcNAc(b1-3)Gal(b1-4)GlcNAc(b1-3)Gal(b1-4)GlcNAc(b1-2)Man(a1-3)[GlcNAc(b1-3)Gal(b1-4)GlcNAc(b1-3)Gal(b1-4)GlcNAc(b1-3)Gal(b1-4)GlcNAc(b1-3)Gal(b1-4)GlcNAc(b1-2)Man(a1-6)]Man(b1-4)GlcNAc(b1-4)GlcNAc
Procedure, shortened: as §1

[7] = target: GlcNAc(b1-3)Gal(b1-4)GlcNAc(b1-3)Gal(b1-4)GlcNAc(b1-3)Gal(b1-4)GlcNAc(b1-3)Gal(b1-4)GlcNAc(b1-2)Man(a1-3)[GlcNAc(b1-3)Gal(b1-4)GlcNAc(b1-3)Gal(b1-4)GlcNAc(b1-3)Gal(b1-4)GlcNAc(b1-3)Gal(b1-4)GlcNAc(b1-2)Man(a1-6)]Man(b1-4)GlcNAc(b1-4)[Fuc(a1-6)]GlcNAc
Procedure, shortened: as §1

[8] = target: GlcNAc(b1-3)Gal(b1-4)GlcNAc(b1-3)Gal(b1-4)GlcNAc(b1-3)Gal(b1-4)GlcNAc(b1-3)Gal(b1-4)GlcNAc(b1-2)[GlcNAc(b1-3)Gal(b1-4)GlcNAc(b1-3)Gal(b1-4)GlcNAc(b1-3)Gal(b1-4)GlcNAc(b1-3)Gal(b1-4)GlcNAc(b1-6)]Man(a1-6)[GlcNAc(b1-3)Gal(b1-4)GlcNAc(b1-3)Gal(b1-4)GlcNAc(b1-3)Gal(b1-4)GlcNAc(b1-3)Gal(b1-4)GlcNAc(b1-2)Man(a1-3)]Man(b1-4)GlcNAc(b1-4)[Fuc(a1-6)]GlcNAc
Procedure, shortened: as §1

[9] = target: GlcNAc(b1-3)Gal(b1-4)GlcNAc(b1-3)Gal(b1-4)GlcNAc(b1-3)GalNAc
Procedure, shortened: as §1

[10] = target: GlcNAc(b1-3)Gal(b1-4)GlcNAc(b1-3)GalNAc
Procedure, shortened: as §1

[11] = target: GlcNAc(b1-3)Gal(b1-4)GlcNAc(b1-3)[GlcNAc(b1-3)Gal(b1-4)GlcNAc(b1-3)]GalNAc
Procedure, shortened: as §1

[12] = target: GlcNAc(b1-3)Gal(b1-4)GlcNAc(b1-6)[Gal(b1-3)]GalNAc
Procedure, shortened: as §1

[13] = target: GlcNAc(b1-3)Gal(b1-4)GlcNAc(b1-6)[GlcNAc(b1-3)Gal(b1-3)]GalNAc
Procedure, shortened: as §1

[14] = target: GlcNAc(b1-3)Gal(b1-4)GlcNAc(b1-6)[GlcNAc(b1-3)]Gal(b1-4)GlcNAc
Procedure, shortened: as §1

[15] = target: GlcNAc(b1-3)GalNAc
Procedure, shortened: as §1

[16] = target: GlcNAc(b1-3)Man
Procedure, shortened: as §1

[17] = target: GlcNAc(b1-3)[GlcNAc(b1-4)][GlcNAc(b1-6)]GlcNAc
Procedure, shortened: as §1

[18] = target: GlcNAc(b1-3)[GlcNAc(b1-6)]Gal(b1-4)GlcNAc
Procedure, shortened: as §1

[19] = target: GlcNAc(b1-3)[GlcNAc(b1-6)]GalNAc
Procedure, shortened: as §1

[20] = target: GlcNAc(b1-4)Gal(b1-4)GlcNAc
Procedure, shortened: as §1

[21] = target: GlcNAc(b1-4)GlcNAc
Procedure, shortened: as §1

[22] = target: GlcNAc(b1-4)GlcNAc(b1-4)GlcNAc
Procedure, shortened: as §1

[23] = target: GlcNAc(b1-4)GlcNAc(b1-4)GlcNAc(b1-4)GlcNAc(b1-4)GlcNAc
Procedure, shortened: as §1

[24] = target: GlcNAc(b1-4)GlcNAc(b1-4)GlcNAc(b1-4)GlcNAc(b1-4)GlcNAc(b1-4)GlcNAc
Procedure, shortened: as §1

[25] = target: GlcNAc(b1-4)[GlcNAc(b1-6)]GalNAc
Procedure, shortened: as §1

[26] = target: GlcNAc(b1-6)Gal(b1-4)GlcNAc
Procedure, shortened: as §1

[27] = target: GlcNAc(b1-6)GalNAc
Procedure, shortened: as §1

[28] = target: GlcNAc6S(b1-3)Gal(b1-4)GlcNAc
Procedure, shortened: as §1

[29] = target: Kdn(a2-3)Gal(b1-3)GalNAc
Procedure, shortened: as §1

[30] = target: Kdn(a2-3)Gal(b1-3)GlcNAc
Procedure, shortened: as §1

[31] = target: Kdn(a2-3)Gal(b1-4)Glc
Procedure, shortened: as §1

[32] = target: Kdn(a2-3)Gal(b1-4)GlcNAc
Procedure, shortened: as §1

[33] = target: Kdn(a2-3)Gal(b1-4)[Fuc(a1-3)]GlcNAc
Procedure, shortened: as §1

[34] = target: Kdn(a2-6)Gal(b1-4)GlcNAc
Procedure, shortened: as §1

[35] = target: Man(a1-2)Man(a1-2)Man(a1-3)Man
Procedure, shortened: as §1

[36] = target: Man(a1-2)Man(a1-2)Man(a1-6)[Man(a1-3)]Man
Procedure, shortened: as §1

[37] = target: Man(a1-2)Man(a1-3)Man
Procedure, shortened: as §1

[38] = target: Man(a1-2)Man(a1-3)[Man(a1-2)Man(a1-6)]Man
Procedure, shortened: as §1

B1: SspB A3vp1 (Streptococcus gordonii), Q54186 (protein)
chain: MTNEADYQAKLAAYQTELARVQKANADAKATYEKAVEDNKAKNAAIKAENEEIKQRNAVAKTDYEAKLAKYEADLAKYKKEFAAYTAALAEAESKKKQDGYLSEPRSQSLNFKSEPNAIRTIDSSVHQYGQQELDALVKSWGISPTNPDRKKSRAYSYFNAINSNNTYAKLVLEKDKPVDVTYTGLKNSSFNGKKISKVVYTYTLKETGFNDGTKMTMFASSDPTVTAWYNDYFTSTNINVKVKFYDEEGQLMNLTGGLVNFSSLNRGNGSGAIDKDAIESVRNFNGRYIPISGSSIKIHENNSAYADSSNAEKSLGARWNTSEWDTTSSPNNWYGAIVGEITQSEISFNMASSKSGNIWFAFNSNINAIGVPTKPVAPTAPTQPMYETEKPLEPAPVAPSYENEPTPPVKTPDQPEPSKPAAALEHHHHHH
glycan array binding signal (z-score) [1]: 1.62
glycan array binding signal (z-score) [2]: 0.956
glycan array binding signal (z-score) [3]: 0.656
glycan array binding signal (z-score) [4]: 1.92
glycan array binding signal (z-score) [5]: -0.133
glycan array binding signal (z-score) [6]: 1.28
glycan array binding signal (z-score) [7]: 1.69
glycan array binding signal (z-score) [8]: 0.521
glycan array binding signal (z-score) [9]: -0.75
glycan array binding signal (z-score) [10]: -1.3
glycan array binding signal (z-score) [11]: -0.753
glycan array binding signal (z-score) [12]: 0.02
glycan array binding signal (z-score) [13]: -0.219
glycan array binding signal (z-score) [14]: -0.22
glycan array binding signal (z-score) [15]: -0.544
glycan array binding signal (z-score) [16]: -0.688
glycan array binding signal (z-score) [17]: -0.608
glycan array binding signal (z-score) [18]: -0.062
glycan array binding signal (z-score) [19]: -0.612
glycan array binding signal (z-score) [20]: 0.043
glycan array binding signal (z-score) [21]: -0.933
glycan array binding signal (z-score) [22]: -1.14
glycan array binding signal (z-score) [23]: -0.741
glycan array binding signal (z-score) [24]: -1.04
glycan array binding signal (z-score) [25]: -0.89
glycan array binding signal (z-score) [26]: 0.555
glycan array binding signal (z-score) [27]: 0.064
glycan array binding signal (z-score) [28]: 0.424
glycan array binding signal (z-score) [29]: 0.874
glycan array binding signal (z-score) [30]: -0.933
glycan array binding signal (z-score) [31]: 1.1
glycan array binding signal (z-score) [32]: -0.659
glycan array binding signal (z-score) [33]: 1.01
glycan array binding signal (z-score) [34]: 0.128
glycan array binding signal (z-score) [35]: -0.389
glycan array binding signal (z-score) [36]: -0.421
glycan array binding signal (z-score) [37]: -0.953
glycan array binding signal (z-score) [38]: -0.889
